# Earlier results as cited in patent publication US20160009727A1, “SA[…] PP2C INHIBITORS FOR CANCER TREATMENT” (Lixte Biotechnology, Inc., priority 2013, published 2016).
# At least one structure is not confirmed: it was looked up by name or label, or the drawing left a doubt.
# What was measured:
# PP2C = conditions: literature, Aburai et al (2010); cited from earlier work
# [1] = system: transcription factor Stat3; conditions: literature, Sun et al. (2012); two human prostate cancer cell lines; cited from earlier work
# [2] = system: human cancer cell lines compared to normal human cells (epidermal keratinocytes); conditions: literature, Ahmed et al.; human cancer cell lines vs epidermal keratinocytes; cited from earlier work
compound,measurement,setting,value
"C[n+]1cc2c3c(ccc2c2ccc4cc5c(cc4c21)OCO5)OCO3 [sanguinarine, 13-methyl-[1,3]benzodioxolo[5,6-c]-1,3-dioxolo[4,5-i]phenanthridinium, reference compound]",inhibition of PP2C,PP2C,inhibitor of PP2C
same,activation of the transcription factor Stat3,[1],inhibits activation
same,"inhibitory activity (anti-proliferative and apoptotic), cancer versus normal cells",[2],greater inhibitory activity
